Source: PubChem BioAssay
Inconclusive results, whose numbers are uncertain, are shown with a selection of clear calls. The source made the active and inactive calls.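 How the source made its calls, unless noted: active means thallium flux slope above the same plate's solvent-only control mean plus 3 SD; inconclusive means the two replicate wells disagree; inactive means no significant difference from solvent-only control wells.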

Sequences of proteins named here, by UniProt entry; tags and fusion partners are left off. A change or cut given only in a name is not applied to a line headed by its entry.
UniProt Q9H2X9: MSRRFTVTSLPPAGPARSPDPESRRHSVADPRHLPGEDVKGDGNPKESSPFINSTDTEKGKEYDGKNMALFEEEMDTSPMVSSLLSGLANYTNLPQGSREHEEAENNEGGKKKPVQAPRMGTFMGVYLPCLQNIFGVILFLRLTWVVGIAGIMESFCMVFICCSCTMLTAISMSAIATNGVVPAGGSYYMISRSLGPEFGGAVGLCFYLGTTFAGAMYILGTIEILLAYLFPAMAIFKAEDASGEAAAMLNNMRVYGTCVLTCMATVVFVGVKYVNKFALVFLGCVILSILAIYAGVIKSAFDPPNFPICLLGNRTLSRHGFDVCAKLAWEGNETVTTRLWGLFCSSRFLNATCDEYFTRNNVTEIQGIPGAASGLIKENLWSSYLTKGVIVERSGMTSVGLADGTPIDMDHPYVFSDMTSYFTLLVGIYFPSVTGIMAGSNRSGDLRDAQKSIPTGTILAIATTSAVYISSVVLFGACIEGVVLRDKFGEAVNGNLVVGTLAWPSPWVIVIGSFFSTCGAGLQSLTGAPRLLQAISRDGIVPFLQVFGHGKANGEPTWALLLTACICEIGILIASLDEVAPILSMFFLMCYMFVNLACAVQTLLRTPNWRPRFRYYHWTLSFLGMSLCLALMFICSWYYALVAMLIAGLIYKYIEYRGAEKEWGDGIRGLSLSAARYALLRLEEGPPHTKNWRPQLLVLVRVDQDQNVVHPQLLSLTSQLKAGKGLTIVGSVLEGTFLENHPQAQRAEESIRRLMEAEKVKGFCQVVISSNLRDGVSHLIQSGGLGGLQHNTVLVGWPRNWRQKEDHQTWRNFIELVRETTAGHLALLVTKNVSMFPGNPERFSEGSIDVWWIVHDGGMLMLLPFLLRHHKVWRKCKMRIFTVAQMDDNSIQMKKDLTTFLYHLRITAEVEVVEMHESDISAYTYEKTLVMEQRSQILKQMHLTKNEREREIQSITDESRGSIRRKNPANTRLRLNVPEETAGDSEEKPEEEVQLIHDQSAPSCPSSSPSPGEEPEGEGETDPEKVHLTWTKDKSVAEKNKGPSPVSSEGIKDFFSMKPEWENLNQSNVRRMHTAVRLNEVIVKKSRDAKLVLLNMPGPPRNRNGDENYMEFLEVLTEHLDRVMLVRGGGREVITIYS

What was measured:
[1] = target: Solute carrier family 12 member 5 (Homo sapiens) (UniProt Q9H2X9); assay: retest of KCC2 transport modulators without sodium – cell-based, HEK293 KCC2, thallium flux, secondary assay, confirmation (AID 1713); conditions: FluoZin2 fluorescence, at 10 µM, hits give high values
Procedure, shortened: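 measured by = kinetic FluoZin2 fluorescence at 1 Hz, ex 480/em 540 nm | material = KCC2-expressing HEK cells | read-out = F/F0 slope over 10–20 s post-thallium, baseline-normalized | repeats = two replicates | schedule = 48 min dye loading | buffer or medium = Sodium-free N-methylglucamine chloride buffer | also added = thallium sulfate stimulus buffer at pH 7.3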

[2] = target: Solute carrier family 12 member 5 (Homo sapiens) (UniProt Q9H2X9); assay: modulation of KCC2 thallium flux in HEK cells – cell-based, ouabain, retest, confirmation (AID 1717;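 active means thallium flux slope beyond 3 SD from same-plate DMSO control mean in most replicates, usually higher, sometimes lower; inconclusive means repeat tests gave conflicting results; inactive means no significant difference from controls in most replicates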;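 further: slope of initial-normalized fluorescence between seconds 10 and 20 after thallium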); conditions: HEK293-KCC2, thallium flux FluoZin2 fluorescence, at 10 µM, bidirectional: low = inhibitor, high = activator
[3] = native HEK Tl+ uptake effects, second counter-screen – HEK cells, counterscreen 2, counter-screen for KCC2 modulator project, confirmation (AID 1718;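 active means thallium flux slope above the same plate's solvent-control mean plus 3 SD in both duplicate wells; inconclusive means duplicate wells that disagreed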;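 further: run without ouabain in cells lacking the KCC2 cotransporter; slope of fluorescence scaled to its starting value between 10 and 20 s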); conditions: HEK293 parental, thallium flux FluoZin-2 fluorescence slope; at 10 µM
Procedure, shortened: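 System: untransfected HEK cells, thallium influx assay; Schedule: 37 °C overnight growth, 48 min FluoZin2-AM loading; Medium: HBSS with 20 mM HEPES for dye loading; Measured by: FluoZin2-AM fluorescence (0.5 µM), ex 480 nm, em 540 nm, kinetic 1 Hz; Read-out: thallium influx rate; Compound: single 10 µM final compound dose, 0.1% DMSO.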

SMILES	normalised thallium flux (F/F0 slope) [1]	raw Tl+ flux slope (below DMSO = inhibition, above = activation) [2]	thallium flux slope [3]
CC1=C(C(=O)OCc2ccccc2)C(c2ccco2)C2=C(CC(C)(C)CC2=O)N1 (configuration not stated)	inconclusive: 0.00665	active: 0.0502	inconclusive: 0.0107
C=CCn1c(-c2ccc(Cl)cc2)c[nH]c1=S	inconclusive: 0.0126	inactive: 0.0255	inconclusive: 0.0115
COc1ccccc1C(=O)NNC(=O)C(=O)NC(C)C	active: 0.0139	inconclusive: 0.0255	active: 0.0108
Cc1onc(-c2ccccc2)c1C(=O)NNC(=S)NC(=O)c1ccc(Cl)cc1Cl	inconclusive: 0.00862	active: 0.0453	active: 0.0415
COc1cc2c3c(c1)c(N=NC(N)=S)c(O)n3C(C)(C)C=C2C	inconclusive: 0.0118	inconclusive: 0.0312	active: 0.0142
O=C(N/N=C1\CCCc2ccccc21)c1cccc(Br)c1	inconclusive: 0.0101	inconclusive: 0.0278	inconclusive: 0.0101
COc1ccc(-n2c(=S)[nH]c3sc(-c4ccccc4)cc3c2=O)c(OC)c1	active: 0.0141	inconclusive: 0.0243	inactive: 0.0123
CC(C)(C)NC(=O)C(=O)NNC(=O)C12CC3CC(CC(C3)C1)C2	inconclusive: 0.00832	active: 0.0384	active: 0.0232
O=C(N/N=C/c1ccc(Br)o1)c1cc([N+](=O)[O-])cc([N+](=O)[O-])c1	inconclusive: 0.0108	active: 0.0263	inconclusive: 0.00984
O=C(N/N=C/c1ccc2cccc(OCc3ccccc3)c2n1)c1ccc(Cl)cc1	active: 0.0224	–	inconclusive: 0.0126
CC(=O)c1c(NC(=O)c2ccccc2)[nH]c(-c2ccccc2)nc1=S	inconclusive: 0.00762	–	active: 0.0544
CCCc1cc(-c2n[nH]c(=S)n2CC)cs1	active: 0.0132	inactive: 0.0258	active: 0.0119
Cc1ccc(S(=O)(=O)Nc2cccc3cccnc23)cc1	inconclusive: 0.0123	–	inconclusive: 0.0113
Oc1ccccc1/C=N/NC(=S)NC1CC2C=CC1C2 (configuration not stated)	inconclusive: 0.0122	–	active: 0.0136
O=C(NC(=S)Nc1cccc2ncccc12)c1ccccc1	inactive: 0.00592	–	inconclusive: 0.0116
O=[N+]([O-])c1cccc(-c2cn(-c3ccccc3)c(=S)[nH]2)c1	active: 0.014	inconclusive: 0.0333	active: 0.0135
O=C(NN=C1CCCC1)c1sc2ccccc2c1Cl	inactive: 0.00568	inconclusive: 0.0257	active: 0.019
N=C1SCC(=O)N1c1ncc(Cc2cccc(Cl)c2)s1	inconclusive: 0.0129	active: 0.0311	inconclusive: 0.0118
CCC1CCCCN1S(=O)(=O)c1ccc(C(=O)Nc2nnc(-c3ccccc3Cl)o2)cc1 (configuration not stated)	active: 0.0148	–	inconclusive: 0.0114
CCOCCCn1c(=S)[nH]c2ncccc2c1=O	inactive: 0.00642	inconclusive: 0.0265	active: 0.021
S=c1[nH]nc(COc2ccccc2)n1/N=C/C=C/c1ccco1	inactive: 0.0072	–	inconclusive: 0.00988
FC(F)(F)c1ccc(Cl)c(NC(=S)N/N=C/c2ccccc2Cl)c1	inactive: 0.01	inconclusive: 0.0271	inactive: 0.00983
CCC1=NN2C(=N)/C(=C\c3cccn3-c3ccc(C)cc3C)C(=O)N=C2S1	inactive: 0.0112	active: 0.04	inconclusive: 0.0122
C=CCN(c1cccc(C(F)(F)F)c1)S(=O)(=O)c1cccc(C(=O)OCC(=O)NCCC)c1	inconclusive: 0.00572	–	inconclusive: 0.00932
Cc1nc(C(=O)NNC(=O)c2ccc(Cl)cc2)cs1	inconclusive: 0.0124	–	inconclusive: 0.0116
O=c1c2ccccc2nc(-c2ccc([N+](=O)[O-])cc2)n1O	inconclusive: 0.0128	–	inconclusive: 0.0129
Cc1cccc(NC(=S)N=Nc2c(O)[nH]c3ccccc23)c1	inconclusive: 0.0121	–	inconclusive: 0.011
O=C(COc1ccccc1)Nc1nnc(-c2ccc3c(c2)CCCC3)o1	inconclusive: 0.0122	–	active: 0.0123

Copied from the list:
Value for C=CCn1c(-c2ccc(Cl)cc2)c[nH]c1=S under normalised thallium flux (F/F0 slope) [1]: inconclusive: 0.0126
Value for O=C(N/N=C/c1ccc(Br)o1)c1cc([N+](=O)[O-])cc([N+](=O)[O-])c1 under normalised thallium flux (F/F0 slope) [1]: inconclusive: 0.0108
